Data from PubChem BioAssay AID1671190 (National Center for Advancing Translational Sciences (NCATS), 2021).
Hit rate of the full screen: of about 580,000 compounds, about 6,100 (1.1%) were called active. The shares of active, inactive and inconclusive entries below differ from those in the screen. The call rests on the fitted dose curve; in most records, active means well fitted inhibition curve with a large enough effect; inconclusive means small, poorly fitted or top-dose-only effect, or another doubt; inactive means no such curve, though single readings can be large or run the other way. Potencies beside an inconclusive call are fits to weak or partial responses and may not hold up.

Amino acid sequences for entries named in this document (tags omitted). A change or cut given only in a name is not applied to a line headed by its entry.
UniProt P18054: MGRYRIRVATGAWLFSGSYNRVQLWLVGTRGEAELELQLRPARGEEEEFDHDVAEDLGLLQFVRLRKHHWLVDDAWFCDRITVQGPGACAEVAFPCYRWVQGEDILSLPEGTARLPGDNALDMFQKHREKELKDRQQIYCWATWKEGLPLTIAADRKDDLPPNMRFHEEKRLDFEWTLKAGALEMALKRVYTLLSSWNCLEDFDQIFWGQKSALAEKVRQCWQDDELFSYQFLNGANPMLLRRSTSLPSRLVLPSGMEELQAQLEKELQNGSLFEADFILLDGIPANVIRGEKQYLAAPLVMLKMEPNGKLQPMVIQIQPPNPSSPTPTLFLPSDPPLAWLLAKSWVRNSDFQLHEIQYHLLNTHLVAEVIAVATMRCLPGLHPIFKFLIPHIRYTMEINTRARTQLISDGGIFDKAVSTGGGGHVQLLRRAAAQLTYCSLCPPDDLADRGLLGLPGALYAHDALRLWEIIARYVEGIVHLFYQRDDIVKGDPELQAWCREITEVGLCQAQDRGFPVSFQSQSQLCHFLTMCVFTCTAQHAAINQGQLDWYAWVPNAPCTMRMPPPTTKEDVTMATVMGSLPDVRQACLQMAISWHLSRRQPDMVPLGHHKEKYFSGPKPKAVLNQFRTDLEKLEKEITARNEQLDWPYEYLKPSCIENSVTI

Each molecule was assayed against Polyunsaturated fatty acid lipoxygenase ALOX12 (Homo sapiens) (UniProt P18054) (assay: Primary qHTS assay for inhibitors of human arachidonate 12S-lipoxygenase (ALOX12): Round 2). Conditions: purified 12hLO, xylenol orange hydroperoxide absorbance; activity change, negative = inhibition: at 108 µM (top of the series) unless noted.
Summary of the method: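 Purified human 12hLO (150 nM final) in 25 mM Hepes, 0.01% Triton X-100, pH 7.0 was preincubated 15 min at room temperature with compound. Then 40 uM arachidonic acid was added, 30 min. Hydroperoxide was read by Fe-XO absorbance ratio 573/405 nm.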
On the % scale 0 is the no-effect control and ±100 the full control effect; potency means the concentration at half of the fitted maximal effect.

Compound | Potency | activity change, negative = inhibition
COc1cc(C(=O)O)nc(OC)n1 | inconclusive: 7.08 µM [inhibitor, full curve] | 
COc1ccc(C(F)(F)F)cc1N/C=C/c1nnnn1-c1ccc(C)cc1 | inconclusive: 39.8 µM [inhibitor, partial curve, poor fit] | 
Cc1ccc(-n2c(Cc3ccccc3)n[nH]c2=S)cc1 | inconclusive: 63.1 µM [inhibitor, partial curve, poor fit] | 
Cc1ccc(NC(=O)CN2C(=O)S/C(=C\c3cc(C)n(-c4cccc(C(=O)O)c4)c3C)C2=O)cc1 | inconclusive: 56.2 µM [inhibitor, partial curve, poor fit] | 
CC1(C)CC(=O)C(=CN2CCN(C(=O)c3ccco3)CC2)C(=O)C1 | inconclusive: 28.2 µM [inhibitor, partial curve, poor fit] | 
CCCCCCN1CCN(C2CN(Cc3cn(CCCC(=O)OC)nn3)S(=O)(=O)C2)CC1 (stereo not given) |  | inactive: -26.7%
CC(C)(C)c1ccc(Oc2ccc(NC(=O)c3ccccc3C(=O)O)cn2)cc1 | inconclusive: 126 µM [inhibitor, single point] | 
CCN1c2cc(C(=O)NCc3cccc(Br)c3)ccc2C(=O)N2CCCCC21 (stereo not given) |  | inactive: -4%
COc1cccc(NC(=O)c2nc(SC)ncc2Cl)c1 |  | inactive: -6.26%
O=C(CCc1ncc(-c2ccccc2F)o1)N1CCN(S(=O)(=O)c2ccccc2Cl)CC1 |  | inactive: -3.63%
O=C(Nc1ccccc1)OCCNC(=O)c1ccccc1 | inconclusive: 89.1 µM [inhibitor, single point] | 
Cn1c(=O)c2c(ncn2CCC(=O)NCc2ccc(F)cc2)n(C)c1=O |  | inactive: 9.96%
CN(C)CCOc1ccc(Cl)cc1C(C)(C)C | inconclusive: 0.631 µM [inhibitor, full curve, poor fit] | 
CCOC(=O)c1c(C2CCN(C(=O)OCC)CC2)nc2ccccn12 |  | inactive: 5.89%
COc1ccc(-c2cc3c(cn2)CN(Cc2cccnc2)CCN3)cc1OC | inconclusive: 1.12 µM [inhibitor, full curve] | 
CC(C)[C@H](CO)NC(=O)[C@H]1O[C@@H](n2ccc(N)nc2=O)[C@H](O)[C@@H]1O | inconclusive: 178 µM [inhibitor, partial curve, poor fit] | 
COC(=O)c1cc(-c2cc(OC)ccc2OC)nc2c1c(=O)n(C)c(=O)n2Cc1ccccc1 | inconclusive: 44.7 µM [inhibitor, partial curve, poor fit] | 
COc1ccccc1[C@@H]1C(c2cccc(C)c2)=NN(c2ccc(Br)cc2)[C@H]1C(=O)N1CCOC1=O | inconclusive: 5.62 µM [inhibitor, full curve, poor fit] | 
Cc1ccc(NC(=O)COC(=O)c2nn(-c3ccc(Cl)cc3)cc2O)cc1 | inconclusive: 39.8 µM [inhibitor, partial curve, poor fit] | 
CCOC(=O)N1CCc2c(sc3c2C(=O)NC(c2ccc(N(C)C)cc2)N3)C1 (stereo not given) |  | inactive: -21.2%
Nc1c(N=O)c(=O)[nH]c(=O)n1-c1ccccc1 |  | inactive: 10.8%
O=CC1=Cc2c(ccc3ccccc23)OC1 | inconclusive: 44.7 µM [inhibitor, single point] | 

Record cards, from the list above.
CCOC(=O)N1CCc2c(sc3c2C(=O)NC(c2ccc(N(C)C)cc2)N3)C1 (stereo not given) is entered as activity change, negative = inhibition: inactive: -21.2%
CCCCCCN1CCN(C2CN(Cc3cn(CCCC(=O)OC)nn3)S(=O)(=O)C2)CC1 (stereo not given) is entered as activity change, negative = inhibition: inactive: -26.7%

Later entries:

Compound | Potency | activity change, negative = inhibition
S=c1[nH]ncn1/N=C/c1ccc(Br)cc1 | inconclusive: 28.2 µM [inhibitor, partial curve, poor fit] | 
COc1ccc(OC)c(C2C(C(=O)c3ccc(C)o3)=C(O)C(=O)N2CCCN2CCOCC2)c1 (stereo not given) | inconclusive: 20 µM [inhibitor, partial curve] | 
CC(C1CC1)N(Cc1ccccc1)C(=S)Nc1cccc(C(F)(F)F)c1 (stereo not given) | inconclusive: 44.7 µM [inhibitor, partial curve, poor fit] | 
Cc1cc(Cl)cc(Cl)c1OCC(=O)Nc1cccc(NC(=O)c2ccco2)c1 | inconclusive: 89.1 µM [inhibitor, partial curve, poor fit] | 
Cc1ccc(C)c(N2CCN(C(=O)c3cc4cc([N+](=O)[O-])ccc4oc3=O)CC2)c1 | inconclusive: 0.562 µM [inhibitor, full curve, poor fit] | 
COc1cccc(/C=C/C(=O)c2c(O)cc(C)oc2=O)c1O | inconclusive: 4.47 µM [inhibitor, full curve, poor fit] | 
Cc1nc2ccccc2c(=O)n1/N=C/c1ccccn1 |  | inactive: 0.252%
CC(=O)Nc1ccc(/C=C/c2noc(-c3ccccc3O)n2)cc1 | inconclusive: 89.1 µM [inhibitor, single point] | 
O=C(C1CCCC1)N1CCn2c(nn(-c3ccncc3)c2=O)C1 |  | inactive: 18.9% [at 176 µM]
C[C@H](CO)N1C[C@H](C)[C@@H](CN(C)C(=O)Nc2ccc(C(F)(F)F)cc2)Oc2ccc(NS(=O)(=O)c3ccc(F)cc3)cc2C1=O | inconclusive: 12.6 µM [inhibitor, partial curve, poor fit] | 
Cc1cc(C)c2ccc(C)[n+]([O-])c2c1O |  | inactive: 0%
COC(=O)C1=C(C(=O)OC)[C@@H]2N(C)c3ccc(OC)cc3[C@@]23C[C@@H](C(=O)OC)N(C(=O)COCc2ccccc2)C3=N1 | inconclusive: 100 µM [inhibitor, single point] | 
CC(=O)c1ccc(N2CCN(S(=O)(=O)c3cc4[nH]c(=O)c(=O)[nH]c4cc3C)CC2)cc1 | inconclusive: 158 µM [inhibitor, single point] | 
CCc1sc(C(=O)NCC(C)C)cc1C |  | inactive: -14.9%
Cn1ccnc1/C(=N\NC(=O)c1ccc(O)cc1)c1cccc([N+](=O)[O-])c1 |  | inactive: 10%
CC(C)n1cc(/C=C2/NC(=O)NC2=O)c2ccccc21 | inconclusive: 89.1 µM [inhibitor, partial curve, poor fit] | 
CC(C)(C)OC(=O)N1CCC(NC(=O)c2[nH]cnc2C(=O)Nc2ccc(Br)cc2F)CC1 |  | inactive: -0.934%
N#Cc1ccc(C23CC4(C2)[C@H](CN(Cc2cccnc2)[C@@H]4c2ccccc2)C3c2ccccc2)cc1 (stereo not given in full) |  | inconclusive: -36.2% [inhibitor]
Cc1ccc(CN2CCOC[C@H]2c2ncc(-c3cccc(F)c3)[nH]2)cc1 | inconclusive: 28.2 µM [inhibitor, full curve, poor fit] | 
Cc1oc(-c2ccccc2)nc1CC(=O)Nc1ccccc1-c1ccccc1 | inconclusive: 79.4 µM [inhibitor, partial curve, poor fit] | 
C=CCNC(=O)NC(C)(C)C(=O)O | inconclusive: 44.7 µM [inhibitor, partial curve, poor fit] | 
CCc1ccc(C(=O)NNc2cc(Cl)cc(Cl)c2)cc1 | inconclusive: 31.6 µM [inhibitor, partial curve, poor fit] | 

Compound | Potency | activity change, negative = inhibition
O=C(CN1CCCCCC1)Nc1ccccc1Oc1ccccc1 |  | inactive: 6.05%
Cc1cc(Cl)ccc1OCC(=O)N[C@@H](Cc1ccccc1)c1nc2ccccc2[nH]1 | inconclusive: 70.8 µM [inhibitor, single point] | 
O=C(NS(=O)(=O)NC(=O)c1ccccc1)c1ccccc1 | active: 11.2 µM | 
Cc1ccc(S(=O)(=O)n2nc(OC(=O)c3c(F)cccc3Cl)cc2N)cc1 | inconclusive: 112 µM [inhibitor, partial curve, poor fit] | 
Cc1ccc(C2C3=C(CC(C)(C)CC3=O)Nc3[nH]c(=S)[nH]c(=O)c32)cc1 (stereo not given) | inconclusive: 5.01 µM [inhibitor, full curve, poor fit] | 
COc1ccc(NS(=O)(=O)c2ccc(Cl)c(N)c2)cc1Br | inconclusive: 44.7 µM [inhibitor, partial curve, poor fit] | 
S=C(Nc1ccc2nsnc2c1)N1CCCC1 | inconclusive: 79.4 µM [inhibitor, single point] | 
Cc1onc(-c2ccccc2Cl)c1C(=O)OCC(=O)c1ccc2c(c1)OCCO2 |  | inactive: 0%
C=CCN=c1scc(C)n1/N=C/c1ccc(O)c(O)c1 | inconclusive: 3.16 µM [inhibitor, full curve, poor fit] | 
COC(=O)c1cccc(NC(=O)COc2ccc3c(C)cc(=O)oc3c2)c1 | inconclusive: 39.8 µM [inhibitor, partial curve, poor fit] | 
CCN(CCO)C(=S)Nc1cccc(C)c1 | inconclusive: 56.2 µM [inhibitor, partial curve, poor fit] | 
COC(=O)c1ccccc1NC(=O)CSc1nnc(-c2cccc(NC(C)=O)c2)n1C | inconclusive: 35.5 µM [inhibitor, partial curve, poor fit] | 
COc1ccc(S(=O)(=O)NCC(c2ccc(C)cc2)N2CCN(C)CC2)cc1OC (stereo not given) | inconclusive: 44.7 µM [inhibitor, partial curve, poor fit] | 
Cc1cccc(C(=O)N[C@H](C(=O)Nc2cc(S(=O)(=O)N3CCCCC3)ccc2C)C(C)C)c1 |  | inactive: -13.2%
Cn1c2ccccc2c(=O)c2ccc(C#CC3(O)CCCCC3)cc21 | inconclusive: 50.1 µM [inhibitor, partial curve, poor fit] | 
CC(C)CC(=O)N1CCN(C(=O)c2c[nH]c3ccccc23)CC1 |  | inactive: 4.98%
CCc1ccc(-n2ccc(=O)c(C(=O)Nc3nnc(C(C)C)s3)n2)cc1 |  | inactive: -18.9%
COc1cc(-c2nc3ccc(C)cn3c2NCc2ccccc2)ccc1-c1cccc(Cl)c1 | inconclusive: 50.1 µM [inhibitor, partial curve, poor fit] | 
CC(C)C(NC(=O)c1ccc(C(C)(C)C)cc1)C(=O)Nc1cccc(S(N)(=O)=O)c1 (stereo not given) |  | inactive: -14.4%
COc1ccc(-c2[nH]nc3ncc(C(=O)NCC(C)C)nc23)c(C)c1 |  | inactive: 0.62% [at 176 µM]
Cc1ccc(S(=O)(=O)CC(=O)Nc2nc3c(C)cc(C)cc3s2)cc1 | inconclusive: 50.1 µM [inhibitor, partial curve, poor fit] | 
